# In publication PMC3313853:
# The chains behind the UniProt entries cited, without tags or fusion partners.
# UniProt P08515, whole entry: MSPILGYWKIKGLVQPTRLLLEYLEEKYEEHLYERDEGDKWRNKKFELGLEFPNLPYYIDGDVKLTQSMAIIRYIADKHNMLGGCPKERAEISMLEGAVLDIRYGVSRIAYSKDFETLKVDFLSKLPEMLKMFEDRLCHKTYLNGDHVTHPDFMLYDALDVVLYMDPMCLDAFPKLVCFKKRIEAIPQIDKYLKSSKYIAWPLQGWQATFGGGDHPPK
# Construct, isoform or probe ends are uncertain for at least one entry. For some of these results: Negatives hold for the conditions tested.
# Legend:
# Test in all cases: EMSA
# [1] = system: GST-Meis2 dMD (lacks MEINOX domain); details: competed by excess unlabeled specific oligo, no Pbx; 10 mM Tris-HCl pH 8.0, 150 mM KCl, 0.25 mM EDTA, 12.5% glycerol, 0.2 mM DTT, protease inhibitors, 1 ug/ul BSA, 1 ug poly(dIdC), 2 ug GST protein; room temperature; recombinant protein; residues 199-400; protein details: N-terminal GST; label: 32P 5' end (polynucleotide kinase)
# [2] = system: GST-Meis2 dHD (lacks homeodomain); details: 10 mM Tris-HCl pH 8.0, 150 mM KCl, 0.25 mM EDTA, 12.5% glycerol, 0.2 mM DTT, protease inhibitors, 1 ug/ul BSA, 1 ug poly(dIdC), 2 ug GST protein; room temperature; recombinant protein; residues 1-190; protein details: N-terminal GST; label: 32P 5' end (polynucleotide kinase)
# GST = GST (UniProt P08515); details: 10 mM Tris-HCl pH 8.0, 150 mM KCl, 0.25 mM EDTA, 12.5% glycerol, 0.2 mM DTT, protease inhibitors, 1 ug/ul BSA, 1 ug poly(dIdC), 2 ug GST protein; room temperature; recombinant protein; protein details: GST; label: 32P 5' end (polynucleotide kinase)
# GST-Meis2 full length = details: competed by 10x unlabeled specific oligo, no Pbx; 10 mM Tris-HCl pH 8.0, 150 mM KCl, 0.25 mM EDTA, 12.5% glycerol, 0.2 mM DTT, protease inhibitors, 1 ug/ul BSA, 1 ug poly(dIdC), 2 ug GST protein; room temperature; recombinant protein; residues 1-400; protein details: N-terminal GST; label: 32P 5' end (polynucleotide kinase)
sequence,measurement,setting,value
CGAAGCCGGCCTTGTCAGGTTGAGAA (double strand) [26-bp Meis probe],binding result,[1],binds
same,binding result,[2],no binding
same,binding result,GST,no binding
same,binding result,GST-Meis2 full length,binds
